Assay results reported in the supplement of paper PMC8728848.
The other results are listed elsewhere or left out.

Tests used:
Experiment in all cases: glycan array binding signal (z-score within array); higher = stronger binding
Conditions in all cases: glycan notation: IUPAC condensed, linker removed
[1] = molecular target: Neu5Ac(a2-6)Gal(b1-4)GlcNAc(b1-3)Gal(b1-4)GlcNAc(b1-3)Gal(b1-4)GlcNAc
In short: (§1)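 The binding signal is a Z-score computed within each array. Data were drawn from 3228 arrays in the Consortium for Functional Glycomics database, restricted to those with a known protein sequence. Scores were averaged over arrays of the same protein sequence at different concentrations or buffers, and over linkers, and negative values can be taken as non-binding.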

[2] = molecular target: Neu5Ac(a2-6)Gal(b1-4)GlcNAc(b1-3)Gal(b1-4)GlcNAc(b1-3)Gal(b1-4)GlcNAc(b1-2)Man(a1-3)[Neu5Ac(a2-6)Gal(b1-4)GlcNAc(b1-3)Gal(b1-4)GlcNAc(b1-3)Gal(b1-4)GlcNAc(b1-2)Man(a1-6)]GalNAc
In short: as §1

[3] = molecular target: Neu5Ac(a2-6)Gal(b1-4)GlcNAc(b1-3)Gal(b1-4)GlcNAc(b1-3)GalNAc
In short: as §1

[4] = molecular target: Neu5Ac(a2-6)Gal(b1-4)GlcNAc(b1-3)Gal(b1-4)GlcNAc(b1-3)[Neu5Ac(a2-6)Gal(b1-4)GlcNAc(b1-3)Gal(b1-4)GlcNAc(b1-6)]GalNAc
In short: as §1

[5] = molecular target: Neu5Ac(a2-6)Gal(b1-4)GlcNAc(b1-3)Gal(b1-4)GlcNAc(b1-6)[Gal(b1-3)]GalNAc
In short: as §1

[6] = molecular target: Neu5Ac(a2-6)Gal(b1-4)GlcNAc(b1-3)Gal(b1-4)[Fuc(a1-3)]GlcNAc(b1-3)Gal(b1-4)[Fuc(a1-3)]GlcNAc
In short: as §1

[7] = molecular target: Neu5Ac(a2-6)Gal(b1-4)GlcNAc(b1-3)GalNAc
In short: as §1

[8] = molecular target: Neu5Ac(a2-6)Gal(b1-4)GlcNAc(b1-3)[Neu5Ac(a2-6)Gal(b1-4)GlcNAc(b1-6)]GalNAc
In short: as §1

[9] = molecular target: Neu5Ac(a2-6)Gal(b1-4)GlcNAc(b1-6)GalNAc
In short: as §1

[10] = molecular target: Neu5Ac(a2-6)Gal(b1-4)GlcNAc(b1-6)[Gal(b1-3)GlcNAc(b1-3)]Gal(b1-4)Glc
In short: as §1

[11] = molecular target: Neu5Ac(a2-6)Gal(b1-4)GlcNAc(b1-6)[Gal(b1-3)]GalNAc
In short: as §1

[12] = molecular target: Neu5Ac(a2-6)Gal(b1-4)GlcNAc6S
In short: as §1

Neu5Ac(a2-6)GalNAc = molecular target: Neu5Ac(a2-6)GalNAc
In short: as §1

[13] = molecular target: Neu5Ac(a2-6)GalNAc(b1-4)GlcNAc
In short: as §1

[14] = molecular target: Neu5Ac(a2-6)GalNAc(b1-4)GlcNAc6S
In short: as §1

[15] = molecular target: Neu5Ac(a2-6)GlcNAc(b1-4)GlcNAc
In short: as §1

[16] = molecular target: Neu5Ac(a2-6)GlcNAc(b1-4)GlcNAc(b1-4)GlcNAc
In short: as §1

Neu5Ac(a2-8)Neu5Ac = molecular target: Neu5Ac(a2-8)Neu5Ac
In short: as §1

[17] = molecular target: Neu5Ac(a2-8)Neu5Ac(a2-3)Gal(b1-3)GalNAc(b1-4)[Neu5Ac(a2-3)]Gal(b1-4)Glc
In short: as §1

[18] = molecular target: Neu5Ac(a2-8)Neu5Ac(a2-3)Gal(b1-3)GalNAc(b1-4)[Neu5Ac(a2-8)Neu5Ac(a2-3)]Gal(b1-4)Glc
In short: as §1

[19] = molecular target: Neu5Ac(a2-8)Neu5Ac(a2-3)Gal(b1-4)Glc
In short: as §1

[20] = molecular target: Neu5Ac(a2-8)Neu5Ac(a2-3)Gal(b1-4)GlcNAc
In short: as §1

[21] = molecular target: Neu5Ac(a2-8)Neu5Ac(a2-3)[Gal(b1-3)GalNAc(b1-4)]Gal(b1-4)Glc
In short: as §1

[22] = molecular target: Neu5Ac(a2-8)Neu5Ac(a2-3)[GalNAc(b1-4)]Gal(b1-4)Glc
In short: as §1

[23] = molecular target: Neu5Ac(a2-8)Neu5Ac(a2-8)Neu5Ac
In short: as §1

[24] = molecular target: Neu5Ac(a2-8)Neu5Ac(a2-8)Neu5Ac(a2-3)Gal(b1-4)Glc
In short: as §1

[25] = molecular target: Neu5Ac(a2-8)Neu5Ac(a2-8)Neu5Ac(a2-3)[Gal(b1-3)GalNAc(b1-4)]Gal(b1-4)Glc
In short: as §1

[26] = molecular target: Neu5Ac(a2-8)Neu5Ac(a2-8)Neu5Ac(a2-3)[GalNAc(b1-4)]Gal(b1-4)Glc
In short: as §1

[27] = molecular target: Neu5Ac(a2-8)Neu5Ac(a2-8)Neu5Ac(a2-8)Neu5Ac(a2-3)[GalNAc(b1-4)]Gal(b1-4)Glc
In short: as §1

[28] = molecular target: Neu5Ac(a2-8)Neu5Gc(a2-3)Gal(b1-4)GlcNAc
In short: as §1

[29] = molecular target: Neu5Ac(b2-6)Gal(b1-4)GlcNAc
In short: as §1

Neu5Ac(b2-6)GalNAc = molecular target: Neu5Ac(b2-6)GalNAc
In short: as §1

[30] = molecular target: Neu5Ac9Ac(a2-3)Gal(b1-3)GlcNAc
In short: as §1

[31] = molecular target: Neu5Ac9Ac(a2-3)Gal(b1-4)GlcNAc
In short: as §1

[32] = molecular target: Neu5Ac9Ac(a2-6)Gal(b1-4)GlcNAc
In short: as §1

[33] = molecular target: Neu5Gc(a2-3)Gal(b1-3)GlcNAc
In short: as §1

[34] = molecular target: Neu5Gc(a2-3)Gal(b1-3)[Fuc(a1-4)]GlcNAc
In short: as §1

Neu5Gc(a2-3)Gal(b1-4)Glc = molecular target: Neu5Gc(a2-3)Gal(b1-4)Glc
In short: as §1

[35] = molecular target: Neu5Gc(a2-3)Gal(b1-4)GlcNAc
In short: as §1

[36] = molecular target: Neu5Gc(a2-3)Gal(b1-4)GlcNAc(b1-3)Gal(b1-4)GlcNAc(b1-2)Man(a1-3)[Neu5Gc(a2-3)Gal(b1-4)GlcNAc(b1-3)Gal(b1-4)GlcNAc(b1-2)Man(a1-6)]Man(b1-4)GlcNAc(b1-4)GlcNAc
In short: as §1

[37] = molecular target: Neu5Gc(a2-3)Gal(b1-4)[Fuc(a1-3)]GlcNAc
In short: as §1

[38] = molecular target: Neu5Gc(a2-6)Gal(b1-4)GlcNAc
In short: as §1

Neu5Gc(a2-6)GalNAc = molecular target: Neu5Gc(a2-6)GalNAc
In short: as §1

[39] = molecular target: Neu5Gc(a2-8)Neu5Ac(a2-3)Gal(b1-4)GlcNAc
In short: as §1

[40] = molecular target: Neu5Gc(a2-8)Neu5Gc(a2-3)Gal(b1-4)GlcNAc
In short: as §1

B1: Epa8 (Candida glabrata) (protein)
chain: MGSSHHHHHHSSGLVPRGSHMASSRALSDYPLGCSPLLGTKLTPGLSMELYEYPLDNHGIGPHCWDPAYLNPEYPRTGFESHKLIGTAQNVMSLNFEHRTQDCHVEFSNLPASFNFPDQITLTNFTMLLYGYFKPKESGRYRFHMEADDLLLMNLGAGNAFDCCAHEATRNNLGDYIAYDIWAGTRKDVEVFLEKEVFYPLRLFFNNRDGRAALDFSYYLNGATEPGTDIPELLFSLPDGESCPAYI
With B1 the “glycan array binding signal (z-score)” value [1] was -0.084, the “glycan array binding signal (z-score)” value [2] was 3.31 and the “glycan array binding signal (z-score)” value [3] was -0.236. The “glycan array binding signal (z-score)” value [4] was 0.061, the “glycan array binding signal (z-score)” value [5] was -0.073 and the “glycan array binding signal (z-score)” value [6] was -0.491. For the same binder, the “glycan array binding signal (z-score)” value [7] was -0.429, the “glycan array binding signal (z-score)” value [8] was 0.279 and the “glycan array binding signal (z-score)” value [9] was 0.167. The “glycan array binding signal (z-score)” value [10] was -0.638, the “glycan array binding signal (z-score)” value [11] was -0.007 and the “glycan array binding signal (z-score)” value [12] was 0.102. For the same binder, the “glycan array binding signal (z-score)” value (Neu5Ac(a2-6)GalNAc) was -0.562, the “glycan array binding signal (z-score)” value [13] was -0.911 and the “glycan array binding signal (z-score)” value [14] was 0.036. The “glycan array binding signal (z-score)” value [15] was 0.862, the “glycan array binding signal (z-score)” value [16] was -0.271 and the “glycan array binding signal (z-score)” value (Neu5Ac(a2-8)Neu5Ac) was -0.558. The “glycan array binding signal (z-score)” value [17] was -0.319, the “glycan array binding signal (z-score)” value [18] was 0.256 and the “glycan array binding signal (z-score)” value [19] was -0.619. The “glycan array binding signal (z-score)” value [20] was -0.961, the “glycan array binding signal (z-score)” value [21] was -0.337 and the “glycan array binding signal (z-score)” value [22] was 1.71. For the same binder, the “glycan array binding signal (z-score)” value [23] was -0.037, the “glycan array binding signal (z-score)” value [24] was -0.563 and the “glycan array binding signal (z-score)” value [25] was 0.84. For the same binder, the “glycan array binding signal (z-score)” value [26] was 1.07, the “glycan array binding signal (z-score)” value [27] was -0.342 and the “glycan array binding signal (z-score)” value [28] was -0.642. For the same binder, the “glycan array binding signal (z-score)” value [29] was 0.817, the “glycan array binding signal (z-score)” value (Neu5Ac(b2-6)GalNAc) was -0.423 and the “glycan array binding signal (z-score)” value [30] was -0.482. The “glycan array binding signal (z-score)” value [31] was -0.308, the “glycan array binding signal (z-score)” value [32] was -0.4 and the “glycan array binding signal (z-score)” value [33] was -0.539. For the same binder, the “glycan array binding signal (z-score)” value [34] was -0.218, the “glycan array binding signal (z-score)” value (Neu5Gc(a2-3)Gal(b1-4)Glc) was 0.498 and the “glycan array binding signal (z-score)” value [35] was -0.658. The “glycan array binding signal (z-score)” value [36] was -0.274, the “glycan array binding signal (z-score)” value [37] was -0.363 and the “glycan array binding signal (z-score)” value [38] was -0.202. For the same binder, the “glycan array binding signal (z-score)” value (Neu5Gc(a2-6)GalNAc) was -0.49, the “glycan array binding signal (z-score)” value [39] was -0.528 and the “glycan array binding signal (z-score)” value [40] was -0.127.
